According to patent publication US6075018A, “1-[2-(substituted vinyl)]-3,4-dihydro-4-dihydro-5H-2,3-benzodiazepine derivatives” (priority 1995, dated 2000):
The name of at least one read-out is uncertain.

Target: binding site specific for homophtalazines (2,3-benzodiazepines)
Experiment: Displacement of 3H-girisopam from the homophtalazine (2,3-benzodiazepine) binding site
Settings: 5 nM of 3H-girisopam

How did the Ki turn out when `COc1ccc(/C=C/C2=NNC(C)Cc3cc(OC)c(OC)cc32)c(OC)c1` (stereo not shown) [Example 18, 1-(2,4-Dimethoxystyryl)-4-methyl-7,8-dimethoxy-3,4-dihydro-5H-2,3-benzodiazepine] was run?
The Ki was 60.7 nM.

Which Ki does the source give for `CCOc1cc(/C=C/C2=NNC(C)Cc3cc(OC)c(OC)cc32)ccc1O` (stereo not shown) [Example 5] here?
The Ki was 78.5 nM.

With `COc1ccc(/C=C/C2=NN(C(C)=O)C(C)Cc3cc(OC)c(OC)cc32)c(OC)c1` (stereo not shown) [Example 21, 1-(2,4-Dimethoxystyryl)-3-acetyl-4-methyl-7,8-dimethoxy-3,4-dihydro-5H-2,3-benzodiazepine] as the compound, how does the Ki read?
Its Ki is 31.3 nM.

For `COc1cc2c(cc1OC)C(/C=C/c1cccc(OC)c1OC)=NN(C(C)=O)C(C)C2` (stereo not shown) [Example 22, 1-(2,3-Dimethoxystyryl)-3-acetyl-4-methyl-7,8-dimethoxy-3,4-dihydro-5H-2,3-benzodiazepine], which Ki is on record?
Its Ki is 53.3 nM.
